The record followed here is article PMC6692328.

Amino acid sequences for entries named in this document (tags omitted).
UniProt P08047: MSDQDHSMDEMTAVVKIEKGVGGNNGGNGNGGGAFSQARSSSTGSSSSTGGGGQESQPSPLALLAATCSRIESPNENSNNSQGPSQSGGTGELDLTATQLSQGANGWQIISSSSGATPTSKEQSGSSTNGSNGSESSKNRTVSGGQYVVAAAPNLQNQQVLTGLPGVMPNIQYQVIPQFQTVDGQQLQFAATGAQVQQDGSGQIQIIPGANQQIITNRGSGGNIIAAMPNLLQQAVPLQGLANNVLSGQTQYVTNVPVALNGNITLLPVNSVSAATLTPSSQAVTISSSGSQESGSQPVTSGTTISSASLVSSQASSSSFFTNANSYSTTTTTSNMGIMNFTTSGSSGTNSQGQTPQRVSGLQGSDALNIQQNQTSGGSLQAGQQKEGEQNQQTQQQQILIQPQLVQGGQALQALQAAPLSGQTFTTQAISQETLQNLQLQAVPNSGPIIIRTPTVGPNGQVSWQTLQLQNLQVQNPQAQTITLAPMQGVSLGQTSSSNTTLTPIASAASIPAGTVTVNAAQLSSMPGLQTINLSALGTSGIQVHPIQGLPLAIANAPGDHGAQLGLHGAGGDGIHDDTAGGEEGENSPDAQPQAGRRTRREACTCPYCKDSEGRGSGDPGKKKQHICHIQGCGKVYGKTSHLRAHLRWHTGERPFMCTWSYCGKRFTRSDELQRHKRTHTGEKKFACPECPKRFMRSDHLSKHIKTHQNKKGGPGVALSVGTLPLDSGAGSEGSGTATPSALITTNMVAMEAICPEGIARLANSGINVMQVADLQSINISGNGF
UniProt P84022: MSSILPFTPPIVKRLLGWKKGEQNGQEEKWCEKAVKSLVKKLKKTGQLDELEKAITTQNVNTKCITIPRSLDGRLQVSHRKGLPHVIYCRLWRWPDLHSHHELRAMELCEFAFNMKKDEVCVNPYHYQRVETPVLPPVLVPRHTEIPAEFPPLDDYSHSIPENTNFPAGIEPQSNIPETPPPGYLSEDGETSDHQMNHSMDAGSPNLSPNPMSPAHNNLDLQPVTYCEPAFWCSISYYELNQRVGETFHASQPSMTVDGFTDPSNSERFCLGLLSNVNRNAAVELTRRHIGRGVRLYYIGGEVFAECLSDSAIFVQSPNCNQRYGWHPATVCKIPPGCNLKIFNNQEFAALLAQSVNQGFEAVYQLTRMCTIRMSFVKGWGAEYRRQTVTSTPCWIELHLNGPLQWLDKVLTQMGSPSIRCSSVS
UniProt Q15796: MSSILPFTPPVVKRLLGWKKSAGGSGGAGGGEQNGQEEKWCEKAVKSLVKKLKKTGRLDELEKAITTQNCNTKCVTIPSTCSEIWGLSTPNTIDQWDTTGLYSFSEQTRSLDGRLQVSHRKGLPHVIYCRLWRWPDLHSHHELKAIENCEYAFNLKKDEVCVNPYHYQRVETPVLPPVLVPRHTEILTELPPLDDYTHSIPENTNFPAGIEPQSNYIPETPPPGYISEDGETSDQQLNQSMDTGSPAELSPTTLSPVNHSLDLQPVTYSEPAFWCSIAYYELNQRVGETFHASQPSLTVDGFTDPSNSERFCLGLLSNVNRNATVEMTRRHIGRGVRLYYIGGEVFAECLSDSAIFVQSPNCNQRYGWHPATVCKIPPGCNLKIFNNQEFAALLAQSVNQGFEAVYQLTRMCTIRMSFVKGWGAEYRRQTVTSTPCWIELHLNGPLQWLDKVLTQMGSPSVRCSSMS

This experiment has as its target Sp1 (human (endogenous in QGY7701)) (UniProt P08047). In words: co-IP; QGY7701 cell lysate; Sp1, P-Smad2 or P-Smad3 antibody or control IgG, agarose-protein G beads, 6 h, washed five times in PBS, eluted in Laemmli buffer, western blotting; reciprocal.

No constants are given. Whether binding was seen depends on the method and setting. In cells and extracts the contact can be indirect. Some binding calls cover weakened binding; strength is not graded here.

For the substance P-Smad3 (from UniProt P84022 1-425), the binding result is reported as “binds”.
Consider P-Smad2 (from UniProt Q15796 1-467), for which the binding entry is on record as “binds”.
